Measurements reported in PubChem BioAssay AID1224826 (NIAID, 2016).

Assay: 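Knock-downs that raise or lower Tnf reporter signal after endotoxin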 (primary screen)
System: RAW264.7 G9 macrophages from mouse bearing reporters for p65 (GFP) and the Tnf promoter (mCherry)
Reagent: siRNA pool against mouse genes, 100 nM
Time to read-out: 16 h of LPS stimulation, after 2 days of siRNA transfection
Challenge: bacterial lipopolysaccharide (Salmonella minnesota R595), 10 ng/ml
Measured: 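Imaged Tnf reporter mCherry in nuclei, minus background, normalised per plate to the median and expressed as robust z-scores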
Direction: Tnf reporter robust z-score: higher = stronger Tnf promoter reporter signal after LPS
Hit rule: 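Called active when robust z-score is at most -1.3, matching the median of the Tlr4 knock-down control, or over 3; control wells and wells with under 50 cells never active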
Calls: active = Tnf reporter clearly lowered or raised; inactive = no clear change in Tnf reporter
In all, the deposit lists about 17,000 reagents; below is a part drawn at random. Over the whole deposit, about 1,110 (6.6%) got an active call. 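Active means lowered or raised reporter signal; replicate intensities are raw and not normalised per plate.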 Further read-outs or replicates are left out here. No sequences are given here.

{"Gene": "Pglyrp3", "PubChem SID": "SID315479595", "Tnf reporter robust z-score": 1.67, "fewer than 50 cells in well": "enough cells in well", "call": "inactive"}
{"Gene": "Prpf6", "PubChem SID": "SID315473661", "fewer than 50 cells in well": "fewer than 50 cells per well; well left out of calls", "call": "inactive"}
{"Gene": "Bclaf1", "PubChem SID": "SID315474579", "Tnf reporter robust z-score": -0.16, "fewer than 50 cells in well": "enough cells in well", "call": "inactive"}
{"Gene": "Kit", "PubChem SID": "SID315467636", "Tnf reporter robust z-score": -0.99, "fewer than 50 cells in well": "enough cells in well", "call": "inactive"}
{"Gene": "Tnfrsf14", "PubChem SID": "SID315478850", "Tnf reporter robust z-score": 0.56, "fewer than 50 cells in well": "enough cells in well", "call": "inactive"}
{"Gene": "Rassf4", "PubChem SID": "SID315477797", "Tnf reporter robust z-score": 0.45, "fewer than 50 cells in well": "enough cells in well", "call": "inactive"}
{"Gene": "Pacsin1", "PubChem SID": "SID315470264", "Tnf reporter robust z-score": 0.73, "fewer than 50 cells in well": "enough cells in well", "call": "inactive"}
{"Gene": "Sun2", "PubChem SID": "SID315478282", "Tnf reporter robust z-score": -1.24, "fewer than 50 cells in well": "enough cells in well", "call": "inactive"}
{"Gene": "Paqr6", "PubChem SID": "SID315473681", "Tnf reporter robust z-score": 3.02, "fewer than 50 cells in well": "enough cells in well", "call": "active"}
{"Gene": "Leng9", "PubChem SID": "SID315479705", "Tnf reporter robust z-score": -0.99, "fewer than 50 cells in well": "enough cells in well", "call": "inactive"}
{"Gene": "Bpifb2", "PubChem SID": "SID315472508", "Tnf reporter robust z-score": 1.95, "fewer than 50 cells in well": "enough cells in well", "call": "inactive"}
{"Gene": "Ntrk2", "PubChem SID": "SID315468263", "Tnf reporter robust z-score": 0.22, "fewer than 50 cells in well": "enough cells in well", "call": "inactive"}
{"Gene": "Arhgef37", "PubChem SID": "SID315481501", "Tnf reporter robust z-score": 2.2, "fewer than 50 cells in well": "enough cells in well", "call": "inactive"}
{"Gene": "Skic8", "PubChem SID": "SID315472360", "fewer than 50 cells in well": "fewer than 50 cells per well; well left out of calls", "call": "inactive"}
{"Gene": "Arvcf", "PubChem SID": "SID315465519", "Tnf reporter robust z-score": 1.57, "fewer than 50 cells in well": "enough cells in well", "call": "inactive"}
{"Gene": "Abi2", "PubChem SID": "SID315481514", "Tnf reporter robust z-score": -0.12, "fewer than 50 cells in well": "enough cells in well", "call": "inactive"}
{"Gene": "Usp18", "PubChem SID": "SID315470329", "Tnf reporter robust z-score": -1.01, "fewer than 50 cells in well": "enough cells in well", "call": "inactive"}
{"Gene": "Alas2", "PubChem SID": "SID315465379", "Tnf reporter robust z-score": 0.46, "fewer than 50 cells in well": "enough cells in well", "call": "inactive"}
{"Gene": "Capn3", "PubChem SID": "SID315465746", "Tnf reporter robust z-score": -0.41, "fewer than 50 cells in well": "enough cells in well", "call": "inactive"}
{"Gene": "Aoc1l2", "PubChem SID": "SID315473892", "Tnf reporter robust z-score": -0.64, "fewer than 50 cells in well": "enough cells in well", "call": "inactive"}
{"Gene": "Tulp2", "PubChem SID": "SID315471658", "Tnf reporter robust z-score": 0.57, "fewer than 50 cells in well": "enough cells in well", "call": "inactive"}
